{"source": "patent US10899732B2", "about": "“Substituted benzamides useful as sodium channel blockers” (GENENTECH, INC., priority 2015, dated 2021)", "origin": "cited, not measured here", "details": "administered topically; cited from earlier work"}
{"compound": "CCN(CC)CC(=O)Nc1c(C)cccc1C", "note": "[lidocaine]", "values": [{"measurement": "plasma concentrations", "result": "about 1 μM"}]}
